## Drug screen on melanoma cell lines: apoptosis marker

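The test systems are human melanoma cell lines, treated with a pair of drugs for 72 h and then stained and imaged. Values are the share of nuclei positive for cleaved PARP as a percentage of the same share in the DMSO control: 100 is the control level, higher means more apoptosis. Concentrations were fixed for each drug; these are the higher of two levels. The file gives one value for each pair and line, without errors, so small differences may be noise. The marker varies much from line to line, for technical or biological reasons.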 An unselected part of the screen is shown. An entry leaves out what has no value listed here.

All values are for the listed drug together with etoposide (0.1 µM): COc1cc([C@@H]2c3cc4c(cc3[C@@H](O[C@@H]3O[C@@H]5CO[C@@H](C)O[C@H]5[C@H](O)[C@H]3O)[C@H]3COC(=O)[C@H]23)OCO4)cc(OC)c1O

{"second drug": "Oc1cc(-c2nc(-c3ccccc3)[nH]c2-c2ccncc2)ccc1Cl at 1 µM", "LOX IMVI": 133, "SK-MEL-5": 52.7, "WM1716": 215, "RPMI-7951": 127, "UACC-62": 810, "MEL-HO": 41.5, "WM3526": 235}
{"second drug": "O=C(O)c1ccc(-c2c[nH]c3ncc(-c4ccccc4)cc23)cc1C1CCCC1 at 0.8 µM", "LOX IMVI": 18.2, "WM1745": 248, "SK-MEL-5": 83.4, "WM1716": 350, "RPMI-7951": 74.5, "UACC-62": 102, "MEL-HO": 176, "WM3526": 79.0}
{"second drug": "C[C@]12O[C@H](C[C@]1(O)CO)n1c3ccccc3c3c4c(c5c6ccccc6n2c5c31)CNC4=O at 0.02 µM", "LOX IMVI": 66.5, "SK-MEL-5": 532, "WM1716": 30.5, "RPMI-7951": 180, "UACC-62": 235, "MEL-HO": 215, "WM3526": 229}
{"second drug": "CCCCCCCCCCCC1=C(O)C(=O)C=C(O)C1=O at 6 µM", "LOX IMVI": 91.0, "SK-MEL-5": 46.0, "WM1716": 130, "RPMI-7951": 104, "UACC-62": 117, "MEL-HO": 116, "WM3526": 121}
{"second drug": "NC(=O)c1ccc(N(C(N)=O)c2c(F)cccc2F)nc1-c1ccc(F)cc1F at 2 µM", "LOX IMVI": 51.1, "WM1745": 103, "SK-MEL-5": 252, "WM1716": 58.6, "RPMI-7951": 94.1, "UACC-62": 195, "MEL-HO": 60.6, "WM3526": 77.7}
{"second drug": "O=C1NC(=O)/C(=C/c2ccc(-c3ccc(F)cc3O)o2)S1 at 5 µM", "LOX IMVI": 168, "SK-MEL-5": 193, "WM1716": 313, "RPMI-7951": 91.3, "UACC-62": 91.4, "MEL-HO": 46.3, "WM3526": 214}
{"second drug": "C[C@@H]1CCN(C(=O)CC#N)C[C@@H]1N(C)c1ncnc2[nH]ccc12 at 5 µM", "LOX IMVI": 58.0, "WM1745": 91.3, "SK-MEL-5": 51.4, "WM1716": 6.2, "RPMI-7951": 36.0, "UACC-62": 121, "MEL-HO": 68.5, "WM3526": 59.0}
{"second drug": "Oc1nc(-c2ccc(C(F)(F)F)cc2)nc2c1CSCC2 at 10 µM", "LOX IMVI": 181, "SK-MEL-5": 327, "WM1716": 294, "RPMI-7951": 125, "UACC-62": 101, "MEL-HO": 147}
{"second drug": "CCCCCCCCCCCCCCCCCCOP(=O)([O-])OC1CC[N+](C)(C)CC1 at 2 µM", "LOX IMVI": 211, "WM1745": 170, "SK-MEL-5": 123, "WM1716": 70.6, "RPMI-7951": 475, "UACC-62": 215, "MEL-HO": 183, "WM3526": 47.2}
{"second drug": "c1cc(-c2cnn3cc(-c4ccc(OCCN5CCCCC5)cc4)cnc23)ccn1 at 2 µM", "LOX IMVI": 90.5, "SK-MEL-5": 138, "WM1716": 67.4, "RPMI-7951": 60.3, "UACC-62": 222, "MEL-HO": 88.4, "WM3526": 81.0}
{"second drug": "Cc1cn(-c2cc(NC(=O)c3ccc(C)c(Nc4nccc(-c5cccnc5)n4)c3)cc(C(F)(F)F)c2)cn1 at 1 µM", "LOX IMVI": 84.9, "WM1745": 131, "SK-MEL-5": 100, "WM1716": 37.2, "RPMI-7951": 62.3, "UACC-62": 155, "MEL-HO": 53.4, "WM3526": 94.0}
{"second drug": "CN(C)S(=O)(=O)c1ccc2c(c1)/C(=C/c1cc3c([nH]1)CCCC3)C(=O)N2 at 2 µM", "LOX IMVI": 43.0, "WM1745": 105, "SK-MEL-5": 313, "WM1716": 64.5, "RPMI-7951": 58.1, "UACC-62": 100, "MEL-HO": 38.4, "WM3526": 163}
{"second drug": "C[C@]1(O)C[C@@H](c2nc(-c3ccc4ccc(-c5ccccc5)nc4c3)c3c(N)nccn32)C1 at 2 µM", "LOX IMVI": 124, "WM1745": 131, "SK-MEL-5": 253, "WM1716": 199, "RPMI-7951": 159, "UACC-62": 214, "MEL-HO": 40.1, "WM3526": 41.0}
{"second drug": "N.N.[Cl][Pt][Cl] at 8 µM", "LOX IMVI": 190, "WM1745": 113, "SK-MEL-5": 238, "WM1716": 120, "RPMI-7951": 121, "UACC-62": 258, "MEL-HO": 139, "WM3526": 174}
{"second drug": "Cc1cc(Nc2cc(N3CCN(C)CC3)nc(/C=C/c3ccccc3)n2)n[nH]1 at 0.2 µM", "LOX IMVI": 204, "WM1745": 94.8, "SK-MEL-5": 87.2, "WM1716": 53.2, "RPMI-7951": 110, "UACC-62": 174, "MEL-HO": 35.9, "WM3526": 123}
{"second drug": "C#Cc1cccc(Nc2ncnc3cc(OCCOC)c(OCCOC)cc23)c1 at 4 µM", "LOX IMVI": 99.3, "WM1745": 138, "SK-MEL-5": 167, "WM1716": 60.0, "RPMI-7951": 53.6, "UACC-62": 262, "MEL-HO": 47.4, "WM3526": 269}
{"second drug": "CCN(CC)CCCCNc1ncc2cc(-c3cc(OC)cc(OC)c3)c(NC(=O)NC(C)(C)C)nc2n1 at 0.5 µM", "LOX IMVI": 110, "SK-MEL-5": 161, "WM1716": 226, "RPMI-7951": 42.4, "UACC-62": 175, "MEL-HO": 64.6, "WM3526": 53.3}
{"second drug": "CC(C)(C)c1cnc(CSc2cnc(NC(=O)C3CCNCC3)s2)o1 at 0.05 µM", "LOX IMVI": 87.3, "WM1745": 116, "SK-MEL-5": 118, "WM1716": 136, "RPMI-7951": 260, "UACC-62": 181, "MEL-HO": 218, "WM3526": 132}
{"second drug": "Cc1cc(SCc2sc(-c3ccc(C(F)(F)F)c(F)c3)nc2C)ccc1OCC(=O)O at 10 µM", "LOX IMVI": 72.7, "SK-MEL-5": 80.5, "WM1716": 133, "RPMI-7951": 175, "UACC-62": 177, "MEL-HO": 38.8, "WM3526": 95.0}
{"second drug": "C/C(O)=C(\\C#N)C(=O)Nc1cc(Br)ccc1Br at 10 µM", "LOX IMVI": 101, "SK-MEL-5": 154, "WM1716": 102, "RPMI-7951": 79.0, "UACC-62": 442, "MEL-HO": 435, "WM3526": 70.4}
{"second drug": "O=S(=O)(c1ccccc1)N(CC(F)(F)F)c1ccc(C(O)(C(F)(F)F)C(F)(F)F)cc1 at 7 µM", "LOX IMVI": 79.7, "SK-MEL-5": 153, "WM1716": 70.4, "RPMI-7951": 53.9, "UACC-62": 281, "MEL-HO": 81.1, "WM3526": 95.0}
{"second drug": "CC(C)CCN1c2nc(Nc3cc(F)c(O)c(F)c3)ncc2N(C)C(=O)C1C (stereo not drawn) at 1 µM", "LOX IMVI": 86.8, "SK-MEL-5": 101, "WM1716": 112, "RPMI-7951": 80.3, "UACC-62": 154, "MEL-HO": 97.6, "WM3526": 130}
{"second drug": "Cn1cc(/C=C2\\C(=O)Nc3cccnc32)c2ccccc21 at 2 µM", "LOX IMVI": 119, "SK-MEL-5": 126, "WM1716": 84.8, "RPMI-7951": 84.5, "UACC-62": 238, "MEL-HO": 79.2, "WM3526": 66.3}
{"second drug": "COc1ccc2c(c1)CCC1C2CCC2(C)C(NCCCCCCN3C(=O)C=CC3=O)CCC12 (stereo not drawn) at 2 µM", "LOX IMVI": 77.9, "SK-MEL-5": 157, "WM1716": 39.5, "RPMI-7951": 253, "UACC-62": 259, "MEL-HO": 117, "WM3526": 63.7}
{"second drug": "Cn1c(=O)n(-c2ccc(C(C)(C)C#N)cc2)c2c3cc(-c4cnc5ccccc5c4)ccc3ncc21 at 0.02 µM", "LOX IMVI": 173, "WM1745": 121, "SK-MEL-5": 127, "WM1716": 29.5, "RPMI-7951": 110, "UACC-62": 155, "MEL-HO": 125, "WM3526": 120}
{"second drug": "COc1ccc(C2=N[C@@H](c3ccc(Cl)cc3)[C@@H](c3ccc(Cl)cc3)N2C(=O)N2CCNC(=O)C2)c(OC(C)C)c1 at 0.5 µM", "LOX IMVI": 60.7, "WM1745": 111, "SK-MEL-5": 85.7, "WM1716": 27.4, "RPMI-7951": 90.6, "UACC-62": 167, "MEL-HO": 112, "WM3526": 76.5}
{"second drug": "O=C(/C=C/c1cccnc1)NCCCCC1CCN(C(=O)c2ccccc2)CC1 at 0.05 µM", "LOX IMVI": 38.6, "WM1745": 113, "SK-MEL-5": 48.9, "WM1716": 79.0, "RPMI-7951": 119, "UACC-62": 140, "MEL-HO": 86.8, "WM3526": 157}
{"second drug": "O=c1cc(-c2cccc3c2Sc2ccccc2S3)oc(N2CCOCC2)c1 at 5 µM", "LOX IMVI": 86.2, "SK-MEL-5": 41.7, "WM1716": 73.1, "RPMI-7951": 106, "UACC-62": 115, "MEL-HO": 45.5, "WM3526": 35.9}
{"second drug": "NC1(c2ccc(-c3nc4ccn5c(=O)[nH]nc5c4cc3-c3ccccc3)cc2)CCC1 at 2 µM", "LOX IMVI": 29.0, "WM1745": 122, "SK-MEL-5": 206, "WM1716": 237, "RPMI-7951": 189, "UACC-62": 667, "MEL-HO": 134, "WM3526": 270}
{"second drug": "COc1cc(N2CCC(N3CCN(C)CC3)CC2)ccc1Nc1ncc(Cl)c(Nc2ccccc2S(=O)(=O)C(C)C)n1 at 0.4 µM", "LOX IMVI": 30.2, "SK-MEL-5": 90.9, "WM1716": 173, "RPMI-7951": 43.5, "UACC-62": 201, "MEL-HO": 183, "WM3526": 142}

The first 3 entries again:

{"second drug": "Oc1cc(-c2nc(-c3ccccc3)[nH]c2-c2ccncc2)ccc1Cl at 1 µM", "LOX IMVI": 133, "SK-MEL-5": 52.7, "WM1716": 215, "RPMI-7951": 127, "UACC-62": 810, "MEL-HO": 41.5, "WM3526": 235}
{"second drug": "O=C(O)c1ccc(-c2c[nH]c3ncc(-c4ccccc4)cc23)cc1C1CCCC1 at 0.8 µM", "LOX IMVI": 18.2, "WM1745": 248, "SK-MEL-5": 83.4, "WM1716": 350, "RPMI-7951": 74.5, "UACC-62": 102, "MEL-HO": 176, "WM3526": 79.0}
{"second drug": "C[C@]12O[C@H](C[C@]1(O)CO)n1c3ccccc3c3c4c(c5c6ccccc6n2c5c31)CNC4=O at 0.02 µM", "LOX IMVI": 66.5, "SK-MEL-5": 532, "WM1716": 30.5, "RPMI-7951": 180, "UACC-62": 235, "MEL-HO": 215, "WM3526": 229}

Source: doi:10.1371/journal.pone.0140310, primary screening data, rounded.